Assay [1] concerns the target DCAF1 (VprBP), endogenous (human (endogenous in HEK293T)) (UniProt Q9Y4B6). Description: co-IP; endogenous proteins; HEK293T extract with 4 μg mouse anti-DCAF1 or unspecific IgG overnight, protein G Sepharose 2 h at 4°C, Western blot.
For assay [2], the target named is Flag-DCAF1 WD40 domain alone (aa 1073-1396) (UniProt Q9Y4B6). Briefly: co-IP; Flag-tagged protein overexpressed in HEK293T; 3-6 mg cell extract in NP-40 buffer with α-Flag M2 beads, 3 h or overnight at 4°C, 3x Flag peptide elution, Western blot; also cells synchronized in G1/S or G2, siRNA against PLK4, or λ-phosphatase treatment of the immunoprecipitate.
In assay [3] the target is Flag-DCAF1 WD40-Acidic (aa 1073-1507) (UniProt Q9Y4B6). Described as above.
For assay [4], the target named is GST-DCAF1 (UniProt Q9Y4B6). Briefly: pull-down; 10 μg GST-DCAF1 and 10 μg MBP-PLK4 in 200 μl NP-40 buffer, 4°C, 1 h; glutathione Sepharose beads 2 h; five washes; Western blot; both purified. For orientation: In western blotting, separated proteins are transferred to a membrane and probed.

Protein sequences, listed by entry. Tags and fused reporters are not part of them. Lines headed by an entry give the natural chain unless they say otherwise; changes in a name come on top. Residues count along the entry.
UniProt Q9Y4B6: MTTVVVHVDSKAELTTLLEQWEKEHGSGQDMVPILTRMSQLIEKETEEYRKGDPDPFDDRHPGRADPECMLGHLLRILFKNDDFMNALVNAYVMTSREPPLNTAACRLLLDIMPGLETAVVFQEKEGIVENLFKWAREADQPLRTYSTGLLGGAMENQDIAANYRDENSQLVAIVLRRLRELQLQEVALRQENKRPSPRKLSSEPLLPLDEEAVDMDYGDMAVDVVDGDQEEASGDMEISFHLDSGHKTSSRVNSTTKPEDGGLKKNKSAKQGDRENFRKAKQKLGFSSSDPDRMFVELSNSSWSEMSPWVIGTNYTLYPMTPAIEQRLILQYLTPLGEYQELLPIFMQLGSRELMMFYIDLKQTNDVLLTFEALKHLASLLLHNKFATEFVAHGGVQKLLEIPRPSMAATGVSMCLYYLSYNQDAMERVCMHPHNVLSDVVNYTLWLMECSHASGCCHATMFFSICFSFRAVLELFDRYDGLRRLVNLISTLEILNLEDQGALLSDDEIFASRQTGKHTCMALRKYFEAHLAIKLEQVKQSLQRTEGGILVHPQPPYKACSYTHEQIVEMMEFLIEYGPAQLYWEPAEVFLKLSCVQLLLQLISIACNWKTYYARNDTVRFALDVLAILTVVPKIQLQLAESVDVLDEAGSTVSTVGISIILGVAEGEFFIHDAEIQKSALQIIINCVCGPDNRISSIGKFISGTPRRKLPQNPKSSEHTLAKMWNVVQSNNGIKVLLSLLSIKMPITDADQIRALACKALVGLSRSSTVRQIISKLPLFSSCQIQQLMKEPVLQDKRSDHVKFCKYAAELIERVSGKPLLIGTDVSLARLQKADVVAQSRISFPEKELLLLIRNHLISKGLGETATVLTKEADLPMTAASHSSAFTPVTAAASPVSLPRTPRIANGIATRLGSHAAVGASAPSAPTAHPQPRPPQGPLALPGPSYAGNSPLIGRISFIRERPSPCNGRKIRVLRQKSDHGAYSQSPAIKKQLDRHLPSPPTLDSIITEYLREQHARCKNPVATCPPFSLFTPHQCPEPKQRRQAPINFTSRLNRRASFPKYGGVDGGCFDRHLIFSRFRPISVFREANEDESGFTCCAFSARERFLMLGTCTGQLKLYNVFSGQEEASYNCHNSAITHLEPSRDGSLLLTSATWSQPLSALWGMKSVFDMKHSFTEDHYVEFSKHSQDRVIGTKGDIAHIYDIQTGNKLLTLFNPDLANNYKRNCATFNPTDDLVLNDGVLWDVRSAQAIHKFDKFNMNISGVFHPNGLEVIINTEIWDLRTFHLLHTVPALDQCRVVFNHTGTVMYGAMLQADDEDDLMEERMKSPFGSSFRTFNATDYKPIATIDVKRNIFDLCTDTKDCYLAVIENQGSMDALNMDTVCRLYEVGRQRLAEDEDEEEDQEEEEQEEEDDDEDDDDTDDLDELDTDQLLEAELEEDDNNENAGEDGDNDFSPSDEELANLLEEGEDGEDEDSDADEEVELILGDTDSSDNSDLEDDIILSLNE
Flag-DCAF1 WD40-Acidic (aa 1073-1507): residues 1073-1507 of Q9Y4B6
Flag-DCAF1 WD40 domain alone (aa 1073-1396): residues 1073-1396 of Q9Y4B6

No constants are given. Whether binding was seen depends on the method and setting. For some of these results: In cells and extracts the contact can be indirect. Some binding calls cover weakened binding; strength is not graded here. For some of these results: Tags and fused reporters may be left off the sequences shown.

B1: PLK4 (polo-like kinase 4), endogenous (protein, UniProt O00444 1-970)
chain: MATCIGEKIEDFKVGNLLGKGSFAGVYRAESIHTGLEVAIKMIDKKAMYKAGMVQRVQNEVKIHCQLKHPSILELYNYFEDSNYVYLVLEMCHNGEMNRYLKNRVKPFSENEARHFMHQIITGMLYLHSHGILHRDLTLSNLLLTRNMNIKIADFGLATQLKMPHEKHYTLCGTPNYISPEIATRSAHGLESDVWSLGCMFYTLLIGRPPFDTDTVKNTLNKVVLADYEMPSFLSIEAKDLIHQLLRRNPADRLSLSSVLDHPFMSRNSSTKSKDLGTVEDSIDSGHATISTAITASSSTSISGSLFDKRRLLIGQPLPNKMTVFPKNKSSTDFSSSGDGNSFYTQWGNQETSNSGRGRVIQDAEERPHSRYLRRAYSSDRSGTSNSQSQAKTYTMERCHSAEMLSVSKRSGGGENEERYSPTDNNANIFNFFKEKTSSSSGSFERPDNNQALSNHLCPGKTPFPFADPTPQTETVQQWFGNLQINAHLRKTTEYDSISPNRDFQGHPDLQKDTSKNAWTDTKVKKNSDASDNAHSVKQQNTMKYMTALHSKPEIIQQECVFGSDPLSEQSKTRGMEPPWGYQNRTLRSITSPLVAHRLKPIRQKTKKAVVSILDSEEVCVELVKEYASQEYVKEVLQISSDGNTITIYYPNGGRGFPLADRPPSPTDNISRYSFDNLPEKYWRKYQYASRFVQLVRSKSPKITYFTRYAKCILMENSPGADFEVWFYDGVKIHKTEDFIQVIEKTGKSYTLKSESEVNSLKEEIKMYMDHANEGHRICLALESIISEEERKTRSAPFFPIIIGRKPGSTSSPKALSPPPSVDSNYPTRERASFNRMVMHSAASPTQAPILNPSMVTNEGLGLTTTASGTDISSNSLKDCLPKSAQLLKSVFVKNVGWATQLTSGAVWVQFNDGSQLVVQAGVSSISYTSPNGQTTRYGENEKLPDYIKQKLQCLSSILLMFSNPTPNFH
Turning to B1, the binding result in assay [1] is reported as “binds”; in assay [2], “no binding”; in assay [3] it was “binds”.

B2: MBP-PLK4 (protein, UniProt O00444 1-970)
chain: B1 chain
As for B2, the binding entry in assay [4] is on record as “binds”.

For the origin of these results see publication PMC10942865.
